Reference: paper PMC12140318
These are yes or no findings as the source states them, for the method shown. In cells and extracts the contact can be indirect. Binding calls can cover weak binding; strength is not graded here.

Chains of the proteins cited; added tags and fusions are not shown. Lines headed by an entry give the natural chain unless they say otherwise; changes in a name come on top.
UniProt P06702: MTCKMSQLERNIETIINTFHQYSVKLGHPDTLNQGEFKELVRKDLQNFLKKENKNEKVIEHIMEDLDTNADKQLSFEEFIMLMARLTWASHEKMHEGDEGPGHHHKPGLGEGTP
UniProt P45973: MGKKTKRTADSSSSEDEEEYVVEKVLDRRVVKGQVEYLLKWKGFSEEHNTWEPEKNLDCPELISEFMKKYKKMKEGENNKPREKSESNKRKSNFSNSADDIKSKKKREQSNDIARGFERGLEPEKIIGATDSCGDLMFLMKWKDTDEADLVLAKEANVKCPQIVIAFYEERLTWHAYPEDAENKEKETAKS

Molecular target: full-length S100A9 in the nucleus (pDC315-3NLS-S100A9-3NLS-3Flag) (human) (UniProt P06702)
Assay: co-IP; 500 µg protein of hAFs with or without nuclear S100A9 or T113D mutant S100A9 overexpression in IP lysis buffer; Flag antibody-coupled beads, or antibodies against Flag, S100A9, CBX5 or MBD3 with protein A agarose, overnight at 4 °C; pre-immune rabbit IgG as negative control; Western blotting

binding: binds
Substance: CBX5 (Chromobox protein homolog 5) (from UniProt P45973 1-191)
